± gives the standard deviation of the averaged measurements. Repeats in this data set agree poorly, so a single value says little.
What was measured:
XL888 [1] = compound: T1, CC[C@@H](C)Nc1cc(C(=O)N[C@H]2C[C@H]3CC[C@@H](C2)N3c2ccc(C(=O)C3CC3)cn2)c(C)cc1C(N)=O [XL888]; test: phosphopeptide melting temperature shift (XL888 minus DMSO); higher = stabilised by drug treatment; conditions: 100 µM; treatment time 2 h; layout: intact cells; SK-Mel 28
Protocol: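 Phospho-TPP in intact SK-Mel 28 cells treated with 100 uM XL888 or DMSO for 2 h, heated at 10 temperatures (37-67 C) for 3 min, soluble fraction TMT10plex-labelled and TiO2 phospho-enriched. Melting curves were fitted per phosphopeptide; the value is the melting point difference (drug minus vehicle) in each of two biological replicates.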

Protein sequences, listed by entry. Tags and fused reporters are not part of them. Lines headed by an entry give the natural chain unless they say otherwise; changes in a name come on top.
UniProt Q96E09: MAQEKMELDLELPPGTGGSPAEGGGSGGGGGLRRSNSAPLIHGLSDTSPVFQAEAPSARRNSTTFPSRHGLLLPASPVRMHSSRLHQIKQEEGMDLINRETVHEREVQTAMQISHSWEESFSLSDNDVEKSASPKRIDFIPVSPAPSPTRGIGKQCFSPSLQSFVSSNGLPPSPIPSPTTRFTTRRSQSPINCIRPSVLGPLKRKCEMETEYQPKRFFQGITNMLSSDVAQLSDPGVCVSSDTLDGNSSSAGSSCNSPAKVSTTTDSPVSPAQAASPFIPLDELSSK
UniProt Q8NE71: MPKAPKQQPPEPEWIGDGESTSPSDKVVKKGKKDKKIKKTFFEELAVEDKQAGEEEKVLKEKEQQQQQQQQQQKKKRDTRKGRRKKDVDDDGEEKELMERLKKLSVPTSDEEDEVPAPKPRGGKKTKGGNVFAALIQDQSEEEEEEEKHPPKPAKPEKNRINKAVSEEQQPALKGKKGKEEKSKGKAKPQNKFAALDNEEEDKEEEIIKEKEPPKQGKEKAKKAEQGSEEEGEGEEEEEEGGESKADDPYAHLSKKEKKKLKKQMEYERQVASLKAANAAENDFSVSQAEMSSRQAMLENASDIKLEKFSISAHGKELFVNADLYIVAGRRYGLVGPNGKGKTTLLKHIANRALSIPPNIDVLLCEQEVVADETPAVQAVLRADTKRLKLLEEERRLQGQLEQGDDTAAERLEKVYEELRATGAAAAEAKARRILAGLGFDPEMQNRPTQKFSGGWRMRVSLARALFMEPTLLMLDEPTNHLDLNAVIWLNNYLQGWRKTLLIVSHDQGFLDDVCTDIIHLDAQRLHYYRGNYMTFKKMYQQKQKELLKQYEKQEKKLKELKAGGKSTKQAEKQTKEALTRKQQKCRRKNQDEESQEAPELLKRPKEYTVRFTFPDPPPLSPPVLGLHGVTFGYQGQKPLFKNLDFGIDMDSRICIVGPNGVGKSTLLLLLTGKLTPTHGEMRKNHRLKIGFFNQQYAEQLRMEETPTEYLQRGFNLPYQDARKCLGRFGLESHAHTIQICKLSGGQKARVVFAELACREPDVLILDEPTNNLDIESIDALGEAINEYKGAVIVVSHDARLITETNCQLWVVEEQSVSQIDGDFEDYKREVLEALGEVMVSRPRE
UniProt Q9Y6Y0: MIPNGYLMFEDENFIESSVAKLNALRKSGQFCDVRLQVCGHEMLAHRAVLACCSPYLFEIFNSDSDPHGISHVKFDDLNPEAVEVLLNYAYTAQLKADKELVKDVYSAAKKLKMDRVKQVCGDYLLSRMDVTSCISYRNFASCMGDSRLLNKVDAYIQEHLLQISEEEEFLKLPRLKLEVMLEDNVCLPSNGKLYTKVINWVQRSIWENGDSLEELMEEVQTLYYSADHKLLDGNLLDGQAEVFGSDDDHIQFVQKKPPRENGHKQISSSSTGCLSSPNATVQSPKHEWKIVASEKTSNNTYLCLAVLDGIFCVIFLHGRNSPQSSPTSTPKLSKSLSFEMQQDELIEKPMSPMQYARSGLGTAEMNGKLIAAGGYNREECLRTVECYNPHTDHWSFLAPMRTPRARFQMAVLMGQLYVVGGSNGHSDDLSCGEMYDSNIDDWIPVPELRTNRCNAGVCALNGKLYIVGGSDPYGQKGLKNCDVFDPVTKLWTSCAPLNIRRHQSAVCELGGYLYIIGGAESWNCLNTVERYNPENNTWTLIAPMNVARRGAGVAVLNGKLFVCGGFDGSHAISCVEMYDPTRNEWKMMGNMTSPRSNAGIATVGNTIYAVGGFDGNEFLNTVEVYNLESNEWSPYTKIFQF
UniProt P14625, whole entry: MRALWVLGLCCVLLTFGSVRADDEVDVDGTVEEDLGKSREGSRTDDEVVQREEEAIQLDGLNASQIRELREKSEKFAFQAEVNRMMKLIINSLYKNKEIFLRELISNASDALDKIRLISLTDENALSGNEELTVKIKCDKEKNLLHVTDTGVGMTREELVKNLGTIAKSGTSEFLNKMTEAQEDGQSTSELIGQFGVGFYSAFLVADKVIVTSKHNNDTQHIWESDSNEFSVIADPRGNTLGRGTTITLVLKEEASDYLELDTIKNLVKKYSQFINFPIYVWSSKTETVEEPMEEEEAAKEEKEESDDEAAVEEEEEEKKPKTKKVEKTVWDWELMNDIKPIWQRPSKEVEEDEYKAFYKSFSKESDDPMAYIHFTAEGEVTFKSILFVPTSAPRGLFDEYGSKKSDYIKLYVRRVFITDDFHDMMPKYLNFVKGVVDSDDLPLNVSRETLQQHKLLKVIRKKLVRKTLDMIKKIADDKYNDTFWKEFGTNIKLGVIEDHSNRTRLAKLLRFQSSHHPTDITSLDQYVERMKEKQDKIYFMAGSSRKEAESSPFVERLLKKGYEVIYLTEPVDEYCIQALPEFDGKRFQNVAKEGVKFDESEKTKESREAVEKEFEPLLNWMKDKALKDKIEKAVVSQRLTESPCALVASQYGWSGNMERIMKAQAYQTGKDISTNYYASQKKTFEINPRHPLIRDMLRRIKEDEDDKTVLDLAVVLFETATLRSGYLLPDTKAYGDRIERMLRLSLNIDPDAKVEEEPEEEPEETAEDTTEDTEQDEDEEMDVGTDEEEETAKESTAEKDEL
UniProt P40763, whole entry, looked up: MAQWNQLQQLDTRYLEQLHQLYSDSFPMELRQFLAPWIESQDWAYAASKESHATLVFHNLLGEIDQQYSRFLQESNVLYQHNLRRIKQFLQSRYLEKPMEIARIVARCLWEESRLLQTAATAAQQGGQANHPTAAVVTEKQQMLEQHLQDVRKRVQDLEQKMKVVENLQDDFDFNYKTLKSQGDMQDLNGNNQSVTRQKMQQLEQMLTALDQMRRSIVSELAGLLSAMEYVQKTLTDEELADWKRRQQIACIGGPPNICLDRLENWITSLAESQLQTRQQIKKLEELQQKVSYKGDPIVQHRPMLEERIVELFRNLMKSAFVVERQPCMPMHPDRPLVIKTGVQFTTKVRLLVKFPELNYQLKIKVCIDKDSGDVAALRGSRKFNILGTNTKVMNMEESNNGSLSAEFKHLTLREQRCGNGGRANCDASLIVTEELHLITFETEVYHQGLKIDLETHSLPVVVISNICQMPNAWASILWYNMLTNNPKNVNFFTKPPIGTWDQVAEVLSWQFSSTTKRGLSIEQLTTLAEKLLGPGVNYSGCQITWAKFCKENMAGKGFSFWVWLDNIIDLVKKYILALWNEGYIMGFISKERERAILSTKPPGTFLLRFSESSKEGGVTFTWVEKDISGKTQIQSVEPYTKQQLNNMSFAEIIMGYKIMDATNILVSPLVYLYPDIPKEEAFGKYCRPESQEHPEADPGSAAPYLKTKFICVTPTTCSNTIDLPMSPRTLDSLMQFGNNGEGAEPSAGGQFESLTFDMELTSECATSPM
UniProt Q9HBL0: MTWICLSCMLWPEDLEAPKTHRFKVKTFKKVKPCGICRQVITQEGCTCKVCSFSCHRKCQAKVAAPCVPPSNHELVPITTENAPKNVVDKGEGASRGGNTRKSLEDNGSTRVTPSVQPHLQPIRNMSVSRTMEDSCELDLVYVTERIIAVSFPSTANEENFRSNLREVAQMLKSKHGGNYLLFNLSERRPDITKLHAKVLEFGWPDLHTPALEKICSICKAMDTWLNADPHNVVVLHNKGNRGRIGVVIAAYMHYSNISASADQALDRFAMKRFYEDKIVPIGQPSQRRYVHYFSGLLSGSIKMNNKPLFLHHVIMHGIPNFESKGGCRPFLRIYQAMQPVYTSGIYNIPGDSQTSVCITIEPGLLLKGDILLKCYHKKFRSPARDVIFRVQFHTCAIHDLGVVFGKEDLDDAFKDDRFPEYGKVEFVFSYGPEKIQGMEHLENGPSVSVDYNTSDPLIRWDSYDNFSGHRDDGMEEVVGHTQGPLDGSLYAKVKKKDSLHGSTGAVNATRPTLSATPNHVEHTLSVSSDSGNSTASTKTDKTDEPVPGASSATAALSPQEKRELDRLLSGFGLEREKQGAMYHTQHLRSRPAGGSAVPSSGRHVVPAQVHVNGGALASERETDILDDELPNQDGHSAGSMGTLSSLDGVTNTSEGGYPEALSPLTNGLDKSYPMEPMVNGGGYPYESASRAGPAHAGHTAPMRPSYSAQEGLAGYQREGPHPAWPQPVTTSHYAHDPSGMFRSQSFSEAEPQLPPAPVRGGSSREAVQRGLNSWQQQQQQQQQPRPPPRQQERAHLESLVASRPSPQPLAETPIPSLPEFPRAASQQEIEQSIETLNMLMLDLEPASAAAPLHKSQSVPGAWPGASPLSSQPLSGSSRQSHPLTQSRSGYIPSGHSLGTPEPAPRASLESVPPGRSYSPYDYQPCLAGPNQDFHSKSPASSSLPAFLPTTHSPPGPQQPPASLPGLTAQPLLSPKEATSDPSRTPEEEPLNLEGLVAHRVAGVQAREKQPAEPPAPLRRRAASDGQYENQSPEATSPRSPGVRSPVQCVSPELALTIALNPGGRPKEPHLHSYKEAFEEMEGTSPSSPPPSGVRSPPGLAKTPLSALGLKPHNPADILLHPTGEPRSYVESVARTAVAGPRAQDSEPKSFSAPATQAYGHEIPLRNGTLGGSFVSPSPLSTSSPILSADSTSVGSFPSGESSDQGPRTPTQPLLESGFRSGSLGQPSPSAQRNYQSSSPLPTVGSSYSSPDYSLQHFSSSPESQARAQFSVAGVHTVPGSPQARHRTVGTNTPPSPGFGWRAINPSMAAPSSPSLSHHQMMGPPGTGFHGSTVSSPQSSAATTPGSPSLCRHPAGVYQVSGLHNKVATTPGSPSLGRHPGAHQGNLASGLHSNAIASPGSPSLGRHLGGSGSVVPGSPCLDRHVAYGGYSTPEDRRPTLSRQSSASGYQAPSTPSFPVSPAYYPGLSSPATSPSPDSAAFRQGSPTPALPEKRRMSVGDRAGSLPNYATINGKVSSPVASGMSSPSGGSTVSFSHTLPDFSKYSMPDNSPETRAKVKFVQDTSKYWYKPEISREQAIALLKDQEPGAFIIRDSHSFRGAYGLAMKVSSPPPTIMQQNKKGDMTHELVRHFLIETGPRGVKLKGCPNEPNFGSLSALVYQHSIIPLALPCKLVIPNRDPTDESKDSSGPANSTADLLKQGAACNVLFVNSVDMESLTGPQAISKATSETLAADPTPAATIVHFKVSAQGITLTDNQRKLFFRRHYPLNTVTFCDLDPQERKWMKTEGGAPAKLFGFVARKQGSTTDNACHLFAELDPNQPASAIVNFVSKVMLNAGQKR
UniProt Q9Y4F1: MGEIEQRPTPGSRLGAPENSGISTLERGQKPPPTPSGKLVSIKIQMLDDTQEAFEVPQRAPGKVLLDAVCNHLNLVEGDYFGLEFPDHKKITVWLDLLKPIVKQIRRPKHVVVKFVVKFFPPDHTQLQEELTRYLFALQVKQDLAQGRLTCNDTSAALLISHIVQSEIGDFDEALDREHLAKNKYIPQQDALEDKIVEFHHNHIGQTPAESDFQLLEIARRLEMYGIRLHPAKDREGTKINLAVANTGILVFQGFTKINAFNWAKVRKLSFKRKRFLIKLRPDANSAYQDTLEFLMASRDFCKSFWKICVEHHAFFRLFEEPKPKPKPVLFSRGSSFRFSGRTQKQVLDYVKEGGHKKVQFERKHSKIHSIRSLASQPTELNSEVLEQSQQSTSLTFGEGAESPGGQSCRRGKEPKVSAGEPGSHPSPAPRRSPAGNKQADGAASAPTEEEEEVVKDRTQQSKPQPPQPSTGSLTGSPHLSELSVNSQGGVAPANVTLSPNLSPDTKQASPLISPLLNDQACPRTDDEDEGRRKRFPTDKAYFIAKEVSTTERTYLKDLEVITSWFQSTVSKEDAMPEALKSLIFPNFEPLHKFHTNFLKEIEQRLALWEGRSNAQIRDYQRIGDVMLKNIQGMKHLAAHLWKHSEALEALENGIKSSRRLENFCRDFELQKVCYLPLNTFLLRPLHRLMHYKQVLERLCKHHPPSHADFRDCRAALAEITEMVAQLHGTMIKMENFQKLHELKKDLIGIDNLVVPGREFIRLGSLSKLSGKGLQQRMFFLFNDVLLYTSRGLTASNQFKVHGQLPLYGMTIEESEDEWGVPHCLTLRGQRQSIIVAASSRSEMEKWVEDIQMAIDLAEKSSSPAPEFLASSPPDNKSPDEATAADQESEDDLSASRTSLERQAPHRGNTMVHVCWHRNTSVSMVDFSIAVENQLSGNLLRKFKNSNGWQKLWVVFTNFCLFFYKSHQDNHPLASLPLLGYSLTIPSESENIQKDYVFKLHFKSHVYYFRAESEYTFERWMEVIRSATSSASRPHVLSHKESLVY
UniProt O43765: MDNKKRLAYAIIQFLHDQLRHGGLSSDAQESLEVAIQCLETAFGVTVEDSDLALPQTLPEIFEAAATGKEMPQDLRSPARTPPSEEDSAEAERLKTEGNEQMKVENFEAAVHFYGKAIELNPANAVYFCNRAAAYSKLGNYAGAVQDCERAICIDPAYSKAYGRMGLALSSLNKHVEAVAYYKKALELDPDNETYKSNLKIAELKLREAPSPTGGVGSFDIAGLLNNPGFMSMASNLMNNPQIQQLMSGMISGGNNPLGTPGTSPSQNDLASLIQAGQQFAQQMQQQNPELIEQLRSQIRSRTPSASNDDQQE

XL888 [2] = compound: T1, XL888; test: as above; conditions: 100 µM; treatment time 2 h; layout: intact cells; SK-Mel 24
Protocol: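 Phospho-TPP in intact SK-Mel 24 cells treated with 100 uM XL888 or DMSO for 2 h, heated at 10 temperatures (37-67 C) for 3 min, soluble fraction TMT10plex-labelled and TiO2 phospho-enriched. Melting curves were fitted per phosphopeptide; the value is the melting point difference (drug minus vehicle) in each of two biological replicates.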

Target | phosphopeptide melting temperature shift (XL888 [1]) | phosphopeptide melting temperature shift (XL888 [2])
UniProt O00203-3_phosphosite_227 (phosphosite position: 227) | 1.53 ± 0.38 °C | 0.223 °C
UniProt Q9UHD8-7_phosphosite_66 (phosphosite position: 66) | 2.53 ± 0.9 °C | 2.46 ± 0.18 °C
UniProt Q9P035_phosphosite_114 (phosphosite position: 114) | -4.46 °C | 0.868 ± 0.14 °C
SRC phosphosite_17 (phosphosite position: 17) (UniProt P12931) | -1.85 ± 0.7 °C | -1.02 °C
FAM122A phosphosite_147 (phosphosite position: 147) (UniProt Q96E09) | -1.93 ± 3.3 °C | -0.055 °C
MAP1B phosphosite_1501 (phosphosite position: 1501) (UniProt P46821) | 0.641 ± 1.8 °C | 1.39 °C
ABCF1 phosphosite_228 (phosphosite position: 228) (UniProt Q8NE71) | -1.2 ± 0.48 °C | -0.62 ± 0.12 °C
ARHGEF11 phosphosite_635 (phosphosite position: 635) (UniProt O15085) | 0.155 °C | -1.07 °C
NCAPG phosphosite_674 (phosphosite position: 674) (UniProt Q9BPX3) | 0.915 ± 0.97 °C | 0.635 °C
ROCK1 phosphosite_1105 (phosphosite position: 1105) (UniProt Q13464) | 1.36 ± 0.49 °C | 2.64 °C
IRF2BP1 phosphosite_453 (phosphosite position: 453) (UniProt Q8IU81) | 2.42 °C | 3.09 °C
USP24 phosphosite_1943 (phosphosite position: 1943) (UniProt Q9UPU5) | 1.32 °C | -1.53 °C
IVNS1ABP phosphosite_338 (phosphosite position: 338) (UniProt Q9Y6Y0) | 0.531 °C | -0.633 ± 0.21 °C
UniProt O14874-2_phosphosite_31 (phosphosite position: 31) | 1.19 ± 1.1 °C | 0.877 ± 0.45 °C
UniProt Q08AD1-2_phosphosite_1121 (phosphosite position: 1121) | 2.53 ± 0.72 °C | 0.218 °C
UniProt P36507_phosphosite_394 (phosphosite position: 394) | -0.783 °C | -1.16 °C
RTF1 phosphosite_79 (phosphosite position: 79) (UniProt Q92541) | 0.544 ± 0.5 °C | 0.773 ± 0.39 °C
LYST phosphosite_2105 (phosphosite position: 2105) (UniProt Q99698) | 0.742 ± 0.69 °C | 0.397 °C
HSP90B1 phosphosite_306 (phosphosite position: 306) (UniProt P14625) | 1.43 °C | 2.92 °C
INPP5F phosphosite_940 (phosphosite position: 940) (UniProt Q9Y2H2) | 0.587 ± 0.1 °C | 0.431 ± 0.97 °C
UniProt Q8IZP0-2_phosphosite_178 (phosphosite position: 178) | 0.994 °C | 0.0735 ± 0.61 °C
UniProt P40763-2_phosphosite_726 (phosphosite position: 726) | -1.2 ± 1.5 °C | 1.71 °C
ABCF1 phosphosite_109 (phosphosite position: 109) (UniProt Q8NE71) | -1.13 ± 3 °C | -1.15 °C

Target | phosphopeptide melting temperature shift (XL888 [1]) | phosphopeptide melting temperature shift (XL888 [2])
DYNC1LI1 phosphosite_207 (phosphosite position: 207) (UniProt Q9Y6G9) | -0.745 ± 1.7 °C | -0.403 °C
UniProt Q9UMZ2-4_phosphosite_674 (phosphosite position: 674) | 0.221 ± 0.34 °C | 1.56 °C
UniProt O60333-2_phosphosite_1011 (phosphosite position: 1011) | -0.371 °C | 0.549 ± 0.49 °C
SRRM2 phosphosite_1083 (phosphosite position: 1083) (UniProt Q9UQ35) | 2.61 ± 1.3 °C | 2.45 °C
GTF2F2 phosphosite_248 (phosphosite position: 248) (UniProt P13984) | 1.82 °C | 0.372 °C
UniProt Q07866-6_phosphosite_591 (phosphosite position: 591) | -0.162 ± 0.67 °C | -0.543 ± 0.3 °C
TNS1 phosphosite_1177 (phosphosite position: 1177) (UniProt Q9HBL0) | 3.73 °C | 0.779 °C
UniProt Q9UPQ9-1_phosphosite_879 (phosphosite position: 879) | -1.12 °C | 0.33 °C
PRKAR1A phosphosite_83 (phosphosite position: 83) (UniProt P10644) | 0.769 ± 0.5 °C | 0.0224 ± 0.0057 °C
FARP1 phosphosite_427 (phosphosite position: 427) (UniProt Q9Y4F1) | 1.93 ± 0.69 °C | 1.44 °C
UniProt Q8WYL5-4_phosphosite_585 (phosphosite position: 585) | -1.11 °C | -1.72 °C
UniProt Q5T4S7-3_phosphosite_2735 (phosphosite position: 2735) | 0.157 ± 0.53 °C | 1.04 °C
UniProt Q5TDH0-2_phosphosite_106 (phosphosite position: 106) | 0.58 ± 0.33 °C | -0.146 °C
SGTA phosphosite_77 (phosphosite position: 77) (UniProt O43765) | 2.3 ± 1.2 °C | -0.418 °C
UniProt Q01831-2_phosphosite_94 (phosphosite position: 94) | 0.926 °C | -2.34 °C
TSC22D4 phosphosite_229 (phosphosite position: 229) (UniProt Q9Y3Q8) | -0.0854 °C | -1.61 °C
UniProt Q9BUR4_phosphosite_90 (phosphosite position: 90) | 0.681 ± 0.052 °C | 0.137 °C
UniProt Q05519-2_phosphosite_448 (phosphosite position: 448) | 3.08 ± 1.6 °C | 0.491 ± 0.77 °C
ACLY phosphosite_455 (phosphosite position: 455) (UniProt P53396) | 0.234 ± 0.34 °C | -0.456 ± 0.28 °C
CDK2 phosphosite_15 (phosphosite position: 15) (UniProt P24941) | 2.86 °C | 3.02 ± 0.46 °C
UniProt P26639_phosphosite_8 (phosphosite position: 8) | 0.462 °C | 0.215 °C
PDLIM4 phosphosite_120 (phosphosite position: 120) (UniProt P50479) | -2.17 °C | 0.427 ± 0.71 °C
RSL1D1 phosphosite_361 (phosphosite position: 361) (UniProt O76021) | -0.211 ± 0.64 °C | -0.237 °C

Exported with tabs: part of the list above.
Target	phosphopeptide melting temperature shift (XL888 [1])	phosphopeptide melting temperature shift (XL888 [2])
DYNC1LI1 phosphosite_207 (phosphosite position: 207) (UniProt Q9Y6G9)	-0.745 ± 1.7 °C	-0.403 °C
UniProt O60333-2_phosphosite_1011 (phosphosite position: 1011)	-0.371 °C	0.549 ± 0.49 °C
PRKAR1A phosphosite_83 (phosphosite position: 83) (UniProt P10644)	0.769 ± 0.5 °C	0.0224 ± 0.0057 °C
FARP1 phosphosite_427 (phosphosite position: 427) (UniProt Q9Y4F1)	1.93 ± 0.69 °C	1.44 °C
UniProt Q8WYL5-4_phosphosite_585 (phosphosite position: 585)	-1.11 °C	-1.72 °C
UniProt Q5TDH0-2_phosphosite_106 (phosphosite position: 106)	0.58 ± 0.33 °C	-0.146 °C
UniProt Q01831-2_phosphosite_94 (phosphosite position: 94)	0.926 °C	-2.34 °C
UniProt Q9BUR4_phosphosite_90 (phosphosite position: 90)	0.681 ± 0.052 °C	0.137 °C
ACLY phosphosite_455 (phosphosite position: 455) (UniProt P53396)	0.234 ± 0.34 °C	-0.456 ± 0.28 °C
CDK2 phosphosite_15 (phosphosite position: 15) (UniProt P24941)	2.86 °C	3.02 ± 0.46 °C
PDLIM4 phosphosite_120 (phosphosite position: 120) (UniProt P50479)	-2.17 °C	0.427 ± 0.71 °C
RSL1D1 phosphosite_361 (phosphosite position: 361) (UniProt O76021)	-0.211 ± 0.64 °C	-0.237 °C

Source: the supplement of paper PMC5836539
